Source: the supplement of paper PMC6411743
± gives the standard deviation of the averaged measurements. The list shows a part of the results.

The chains behind the UniProt entries cited, without tags or fusion partners. Where a name states a change or a piece, a line headed by the entry shows the natural chain unless it says otherwise.
UniProt Q7RTR2: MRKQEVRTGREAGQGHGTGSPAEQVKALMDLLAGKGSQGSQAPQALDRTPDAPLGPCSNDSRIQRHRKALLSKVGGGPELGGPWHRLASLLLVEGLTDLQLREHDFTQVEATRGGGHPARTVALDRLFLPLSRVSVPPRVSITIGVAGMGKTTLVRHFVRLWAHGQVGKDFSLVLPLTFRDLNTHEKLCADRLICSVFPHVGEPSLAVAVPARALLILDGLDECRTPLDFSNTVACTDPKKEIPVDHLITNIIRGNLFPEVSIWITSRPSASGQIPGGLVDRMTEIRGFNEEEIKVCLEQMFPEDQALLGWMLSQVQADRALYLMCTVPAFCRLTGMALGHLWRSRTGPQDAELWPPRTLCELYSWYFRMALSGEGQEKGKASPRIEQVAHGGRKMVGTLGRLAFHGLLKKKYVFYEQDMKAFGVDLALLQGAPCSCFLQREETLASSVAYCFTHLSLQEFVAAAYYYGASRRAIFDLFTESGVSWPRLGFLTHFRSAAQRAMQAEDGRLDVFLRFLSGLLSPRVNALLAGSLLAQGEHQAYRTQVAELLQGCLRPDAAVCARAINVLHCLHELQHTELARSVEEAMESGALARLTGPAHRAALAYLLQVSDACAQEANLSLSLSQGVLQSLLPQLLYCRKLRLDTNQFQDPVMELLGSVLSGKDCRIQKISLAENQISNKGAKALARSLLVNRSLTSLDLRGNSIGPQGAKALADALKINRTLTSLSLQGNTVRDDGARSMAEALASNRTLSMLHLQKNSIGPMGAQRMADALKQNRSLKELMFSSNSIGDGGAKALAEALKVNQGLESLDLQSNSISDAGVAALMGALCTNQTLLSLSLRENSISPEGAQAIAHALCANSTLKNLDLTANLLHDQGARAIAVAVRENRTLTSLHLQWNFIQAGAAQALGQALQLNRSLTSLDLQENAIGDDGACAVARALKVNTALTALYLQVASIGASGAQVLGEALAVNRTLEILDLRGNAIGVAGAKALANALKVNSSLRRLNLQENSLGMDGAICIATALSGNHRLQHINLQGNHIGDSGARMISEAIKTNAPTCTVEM
UniProt Q6V1X1: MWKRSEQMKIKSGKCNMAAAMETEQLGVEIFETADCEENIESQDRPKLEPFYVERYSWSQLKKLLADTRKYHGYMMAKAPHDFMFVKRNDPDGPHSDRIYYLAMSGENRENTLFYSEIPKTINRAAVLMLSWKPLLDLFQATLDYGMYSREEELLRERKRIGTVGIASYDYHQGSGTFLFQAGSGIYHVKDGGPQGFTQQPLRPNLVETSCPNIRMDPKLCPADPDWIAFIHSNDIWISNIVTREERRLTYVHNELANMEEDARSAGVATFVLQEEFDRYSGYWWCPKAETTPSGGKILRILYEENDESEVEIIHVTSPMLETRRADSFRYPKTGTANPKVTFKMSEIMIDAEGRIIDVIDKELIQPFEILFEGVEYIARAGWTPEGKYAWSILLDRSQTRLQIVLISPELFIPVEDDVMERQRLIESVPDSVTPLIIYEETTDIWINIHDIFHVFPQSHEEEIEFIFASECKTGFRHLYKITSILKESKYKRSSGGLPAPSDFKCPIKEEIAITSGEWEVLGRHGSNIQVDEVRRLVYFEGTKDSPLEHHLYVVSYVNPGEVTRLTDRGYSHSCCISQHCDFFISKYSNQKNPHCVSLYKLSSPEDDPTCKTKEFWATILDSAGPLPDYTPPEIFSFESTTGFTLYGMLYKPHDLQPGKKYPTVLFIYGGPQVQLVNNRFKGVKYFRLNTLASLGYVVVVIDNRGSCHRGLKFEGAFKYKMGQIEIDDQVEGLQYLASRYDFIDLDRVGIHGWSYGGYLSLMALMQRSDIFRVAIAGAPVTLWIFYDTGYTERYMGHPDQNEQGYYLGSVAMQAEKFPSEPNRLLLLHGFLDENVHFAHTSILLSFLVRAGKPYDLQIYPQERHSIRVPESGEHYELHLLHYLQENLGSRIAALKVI
UniProt Q9NXW2: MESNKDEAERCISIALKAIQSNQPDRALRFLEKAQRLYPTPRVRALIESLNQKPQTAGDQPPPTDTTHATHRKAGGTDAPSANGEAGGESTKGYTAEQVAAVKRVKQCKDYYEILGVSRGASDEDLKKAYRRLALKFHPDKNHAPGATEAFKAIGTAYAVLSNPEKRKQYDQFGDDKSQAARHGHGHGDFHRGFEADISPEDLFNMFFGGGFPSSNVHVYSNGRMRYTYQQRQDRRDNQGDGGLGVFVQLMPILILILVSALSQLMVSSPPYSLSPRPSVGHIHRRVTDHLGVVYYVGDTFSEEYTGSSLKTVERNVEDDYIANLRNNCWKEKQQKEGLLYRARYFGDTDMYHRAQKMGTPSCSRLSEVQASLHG
UniProt P61769, whole entry: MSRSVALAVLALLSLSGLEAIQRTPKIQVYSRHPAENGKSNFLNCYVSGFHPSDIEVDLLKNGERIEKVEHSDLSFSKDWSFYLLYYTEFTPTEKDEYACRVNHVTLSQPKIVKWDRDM
UniProt Q86UW6: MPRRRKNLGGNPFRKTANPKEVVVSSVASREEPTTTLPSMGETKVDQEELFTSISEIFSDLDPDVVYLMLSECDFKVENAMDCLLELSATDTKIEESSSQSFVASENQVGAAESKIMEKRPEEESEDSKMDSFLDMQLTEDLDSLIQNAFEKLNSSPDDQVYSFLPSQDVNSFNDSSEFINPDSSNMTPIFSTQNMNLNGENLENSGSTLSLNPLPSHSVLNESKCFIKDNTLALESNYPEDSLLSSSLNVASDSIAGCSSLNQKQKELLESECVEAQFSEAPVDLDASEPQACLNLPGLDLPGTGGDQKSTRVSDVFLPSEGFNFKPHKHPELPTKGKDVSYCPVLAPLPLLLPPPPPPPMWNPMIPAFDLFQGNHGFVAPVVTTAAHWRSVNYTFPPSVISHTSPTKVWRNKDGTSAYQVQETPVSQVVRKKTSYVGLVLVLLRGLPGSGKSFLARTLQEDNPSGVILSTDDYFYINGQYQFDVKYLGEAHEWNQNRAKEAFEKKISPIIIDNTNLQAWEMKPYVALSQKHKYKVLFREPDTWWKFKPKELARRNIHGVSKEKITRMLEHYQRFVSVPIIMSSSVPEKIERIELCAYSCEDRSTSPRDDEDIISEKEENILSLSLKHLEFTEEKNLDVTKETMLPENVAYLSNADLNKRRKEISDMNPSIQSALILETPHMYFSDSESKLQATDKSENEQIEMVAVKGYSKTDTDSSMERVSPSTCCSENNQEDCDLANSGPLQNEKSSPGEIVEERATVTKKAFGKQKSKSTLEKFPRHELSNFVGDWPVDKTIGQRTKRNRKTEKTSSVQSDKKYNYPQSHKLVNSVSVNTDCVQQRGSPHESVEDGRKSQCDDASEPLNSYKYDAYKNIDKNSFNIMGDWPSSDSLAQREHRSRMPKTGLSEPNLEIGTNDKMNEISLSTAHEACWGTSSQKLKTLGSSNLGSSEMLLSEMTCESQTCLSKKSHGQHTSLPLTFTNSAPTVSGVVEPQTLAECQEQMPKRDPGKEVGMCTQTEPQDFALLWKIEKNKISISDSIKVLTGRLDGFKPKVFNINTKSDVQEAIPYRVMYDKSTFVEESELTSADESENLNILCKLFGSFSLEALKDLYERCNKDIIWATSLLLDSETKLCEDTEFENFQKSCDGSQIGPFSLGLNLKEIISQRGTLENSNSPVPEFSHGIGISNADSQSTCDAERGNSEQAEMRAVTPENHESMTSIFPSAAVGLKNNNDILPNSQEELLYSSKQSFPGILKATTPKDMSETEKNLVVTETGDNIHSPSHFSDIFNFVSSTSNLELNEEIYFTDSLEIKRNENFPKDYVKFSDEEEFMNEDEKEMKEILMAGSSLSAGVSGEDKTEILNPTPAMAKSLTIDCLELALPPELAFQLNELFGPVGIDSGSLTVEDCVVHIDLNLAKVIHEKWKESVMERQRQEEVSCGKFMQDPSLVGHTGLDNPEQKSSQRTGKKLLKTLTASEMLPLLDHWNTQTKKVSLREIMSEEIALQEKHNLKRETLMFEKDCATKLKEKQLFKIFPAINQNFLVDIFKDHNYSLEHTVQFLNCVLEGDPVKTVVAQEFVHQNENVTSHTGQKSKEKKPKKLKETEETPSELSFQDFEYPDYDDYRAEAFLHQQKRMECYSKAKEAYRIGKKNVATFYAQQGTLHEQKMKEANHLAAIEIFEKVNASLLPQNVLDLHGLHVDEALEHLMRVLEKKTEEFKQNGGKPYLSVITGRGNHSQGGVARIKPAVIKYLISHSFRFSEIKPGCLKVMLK
UniProt Q9UGJ1, whole entry: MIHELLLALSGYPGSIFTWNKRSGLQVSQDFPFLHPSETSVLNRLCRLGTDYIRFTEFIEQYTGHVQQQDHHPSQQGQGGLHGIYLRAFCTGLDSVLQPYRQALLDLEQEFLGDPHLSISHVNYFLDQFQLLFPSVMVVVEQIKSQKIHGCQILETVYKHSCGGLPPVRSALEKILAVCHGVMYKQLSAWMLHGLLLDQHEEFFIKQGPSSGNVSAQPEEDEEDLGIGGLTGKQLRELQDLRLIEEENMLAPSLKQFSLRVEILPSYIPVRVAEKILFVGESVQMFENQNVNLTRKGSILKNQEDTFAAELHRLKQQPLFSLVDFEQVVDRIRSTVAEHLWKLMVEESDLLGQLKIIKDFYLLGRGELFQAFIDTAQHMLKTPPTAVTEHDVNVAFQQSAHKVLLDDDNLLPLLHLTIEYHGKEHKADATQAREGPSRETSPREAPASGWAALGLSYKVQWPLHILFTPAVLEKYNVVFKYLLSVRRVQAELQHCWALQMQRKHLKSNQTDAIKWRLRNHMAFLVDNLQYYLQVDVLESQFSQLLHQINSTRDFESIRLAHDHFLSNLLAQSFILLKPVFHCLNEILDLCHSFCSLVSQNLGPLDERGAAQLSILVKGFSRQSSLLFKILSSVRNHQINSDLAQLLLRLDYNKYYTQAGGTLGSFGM
UniProt Q9Y448: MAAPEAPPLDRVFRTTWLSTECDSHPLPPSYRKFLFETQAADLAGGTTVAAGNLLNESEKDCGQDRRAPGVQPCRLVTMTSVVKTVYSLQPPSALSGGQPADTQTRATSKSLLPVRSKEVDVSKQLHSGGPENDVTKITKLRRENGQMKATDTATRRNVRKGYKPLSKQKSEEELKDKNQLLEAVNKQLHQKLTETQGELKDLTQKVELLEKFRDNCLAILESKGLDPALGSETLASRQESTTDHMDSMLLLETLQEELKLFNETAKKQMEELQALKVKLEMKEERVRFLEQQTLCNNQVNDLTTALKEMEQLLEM
UniProt Q8NEW0: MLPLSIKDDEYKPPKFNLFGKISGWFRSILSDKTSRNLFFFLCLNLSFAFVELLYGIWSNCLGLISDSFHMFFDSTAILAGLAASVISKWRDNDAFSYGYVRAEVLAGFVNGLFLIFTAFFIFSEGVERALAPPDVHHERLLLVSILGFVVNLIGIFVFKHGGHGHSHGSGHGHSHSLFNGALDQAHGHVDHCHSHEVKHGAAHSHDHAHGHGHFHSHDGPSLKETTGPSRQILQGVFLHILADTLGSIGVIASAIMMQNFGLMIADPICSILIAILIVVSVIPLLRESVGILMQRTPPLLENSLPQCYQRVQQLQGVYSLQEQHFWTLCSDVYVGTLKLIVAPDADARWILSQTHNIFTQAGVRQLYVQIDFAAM
UniProt Q9UKL0, whole entry: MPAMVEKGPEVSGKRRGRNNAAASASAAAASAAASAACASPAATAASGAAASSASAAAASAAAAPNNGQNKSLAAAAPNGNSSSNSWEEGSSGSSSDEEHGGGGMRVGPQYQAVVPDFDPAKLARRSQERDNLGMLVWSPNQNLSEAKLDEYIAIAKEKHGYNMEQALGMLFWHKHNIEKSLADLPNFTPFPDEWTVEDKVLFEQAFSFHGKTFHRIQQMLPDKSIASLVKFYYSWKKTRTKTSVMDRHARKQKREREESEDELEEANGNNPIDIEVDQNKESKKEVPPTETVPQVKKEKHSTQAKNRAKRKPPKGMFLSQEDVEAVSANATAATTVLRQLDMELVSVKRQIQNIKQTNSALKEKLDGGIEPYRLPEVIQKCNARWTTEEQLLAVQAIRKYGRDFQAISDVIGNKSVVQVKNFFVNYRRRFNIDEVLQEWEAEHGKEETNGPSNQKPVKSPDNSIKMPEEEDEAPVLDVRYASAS
UniProt Q5JPH6: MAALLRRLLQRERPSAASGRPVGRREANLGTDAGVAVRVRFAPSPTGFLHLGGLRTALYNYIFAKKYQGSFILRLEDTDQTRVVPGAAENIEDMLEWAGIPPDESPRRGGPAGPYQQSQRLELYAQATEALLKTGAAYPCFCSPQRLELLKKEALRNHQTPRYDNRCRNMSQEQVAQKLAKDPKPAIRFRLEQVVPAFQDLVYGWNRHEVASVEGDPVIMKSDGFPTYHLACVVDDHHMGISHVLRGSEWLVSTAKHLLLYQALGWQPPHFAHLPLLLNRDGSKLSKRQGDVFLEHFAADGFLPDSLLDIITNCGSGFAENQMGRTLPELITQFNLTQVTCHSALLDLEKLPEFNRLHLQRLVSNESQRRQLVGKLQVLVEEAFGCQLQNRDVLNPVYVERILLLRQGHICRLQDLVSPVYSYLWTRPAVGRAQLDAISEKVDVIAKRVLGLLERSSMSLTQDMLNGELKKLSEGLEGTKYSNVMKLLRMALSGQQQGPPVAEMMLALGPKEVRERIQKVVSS

Compound: Nc1nc2c(ncn2[C@@H]2O[C@H](COP(=O)(O)OP(=O)(O)OP(=O)(O)O)[C@@H](O)[C@H]2O)c(=O)[nH]1 [guanosine triphosphate]
Assay: NP40-soluble protein abundance relative to vehicle (solubility fold change) (ratio); higher = more soluble protein in presence of GTP
Procedure, shortened: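 Jurkat crude lysate (Dounce-homogenised) was treated with eight concentrations from 0.1 to 10 mM for 10 min at room temperature, then 3 min at 37 °C. It was solubilised with 0.8% NP40 and benzonase (60 min, 4 °C) and ultracentrifuged, and the supernatant was TMT-labelled for LC-MS/MS. Intensities were vsn-normalised, and the value is the fold change against the NP40-processed vehicle per replicate, from three independent experiments.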

| Target | NP40-soluble protein abundance (concentration: 0.1mM) | NP40-soluble protein abundance (concentration: 0.5mM) | NP40-soluble protein abundance (concentration: 1mM) | NP40-soluble protein abundance (concentration: 2mM) | NP40-soluble protein abundance (concentration: 4mM) | NP40-soluble protein abundance (concentration: 6mM) | NP40-soluble protein abundance (concentration: 8mM) | NP40-soluble protein abundance (concentration: 10mM) |
| --- | --- | --- | --- | --- | --- | --- | --- | --- |
| H3BSW6 and related entries (UniProt Q2VPK5) | 1.03 ± 0.014 | 1.12 ± 0.078 | 0.96 ± 0.0096 | 0.987 ± 0.12 | 1.03 ± 0.2 | 1.02 ± 0.11 | 0.907 ± 0.019 | 0.958 ± 0.12 |
| K4DI93 (UniProt Q13620) | 1.05 ± 0.094 | 1.05 ± 0.099 | 0.96 ± 0.089 | 0.975 ± 0.13 | 0.95 ± 0.12 | 0.942 ± 0.086 | 0.919 ± 0.07 | 0.902 ± 0.085 |
| H7C0G7 and related entries (UniProt Q9H9Q4) | 1.01 ± 0.059 | 1.11 ± 0.05 | 1.11 ± 0.09 | 1.15 ± 0.066 | 1.12 ± 0.16 | 1.07 ± 0.13 | 1.14 ± 0.16 | 1.19 ± 0.25 |
| H3BLT9 and related entries (UniProt Q7RTR2) | 1.06 ± 0.066 | 1.05 ± 0.066 | 1 ± 0.069 | 1.04 ± 0.078 | 1.02 ± 0.035 | 1.03 ± 0.039 | 1.05 ± 0.02 | 0.995 ± 0.06 |
| J3KNN5 and related entries (UniProt Q9UJV9) | 1.08 ± 0.029 | 1.28 ± 0.14 | 1.25 ± 0.14 | 1.28 ± 0.13 | 1.28 ± 0.14 | 1.37 ± 0.16 | 1.39 ± 0.15 | 1.48 ± 0.21 |
| H7C1J8 and related entries (UniProt P51991) | 1.02 ± 0.076 | 1.17 ± 0.15 | 1.24 ± 0.24 | 1.39 ± 0.31 | 1.43 ± 0.42 | 1.42 ± 0.38 | 1.5 ± 0.44 | 1.48 ± 0.42 |
| J3KPT0 and related entries (UniProt Q6V1X1) | 1.01 ± 0.042 | 1.01 ± 0.056 | 0.946 ± 0.073 | 0.949 ± 0.024 | 0.986 ± 0.04 | 0.905 ± 0.054 | 0.89 ± 0.058 | 0.829 ± 0.028 |
| J3KPS0 and related entries (UniProt Q9NXW2) | 1.01 ± 0.065 | 0.995 ± 0.088 | 0.984 ± 0.083 | 0.935 ± 0.064 | 0.913 ± 0.066 | 0.918 ± 0.1 | 0.967 ± 0.082 | 0.925 ± 0.063 |
| H0YLF3 and related entries (UniProt P61769) | 0.88 ± 0.033 | 0.904 ± 0.031 | 0.915 ± 0.03 | 0.898 ± 0.034 | 0.894 ± 0.064 | 0.878 ± 0.048 | 0.87 ± 0.074 | 0.928 ± 0.04 |
| K7EPN2 and related entries (UniProt P22830) | 1.06 ± 0.013 | 1.06 ± 0.034 | 0.972 ± 0.015 | 0.945 ± 0.055 | 0.958 ± 0.039 | 0.939 ± 0.03 | 0.928 ± 0.043 | 0.885 ± 0.05 |
| H0YA93 and related entries (UniProt Q86UW6) | 1.12 ± 0.023 | 1.02 ± 0.11 | 1.15 ± 0.04 | 1.13 ± 0.15 | 1.1 ± 0.045 | 1.2 ± 0.059 | 1.11 ± 0.062 | 1.18 ± 0.1 |
| H3BPU4 and related entries (UniProt Q9UGJ1) | 1.03 ± 0.11 | 1.07 ± 0.11 | 1.03 ± 0.11 | 1.2 ± 0.17 | 1.25 ± 0.2 | 1.26 ± 0.19 | 1.12 ± 0.19 | 0.968 ± 0.13 |
| J3QL06 and related entries (UniProt Q9Y4L1) | 0.913 ± 0.088 | 0.942 ± 0.093 | 0.926 ± 0.095 | 0.877 ± 0.087 | 0.859 ± 0.084 | 0.89 ± 0.087 | 0.88 ± 0.091 | 0.88 ± 0.088 |
| H3BLZ8 (UniProt Q92841) | 0.965 ± 0.078 | 0.966 ± 0.11 | 0.903 ± 0.22 | 1.05 ± 0.018 | 0.981 ± 0.25 | 1.21 ± 0.12 | 1.16 ± 0.1 | 1.05 ± 0.28 |
| I3L397 and related entries (UniProt P63241) | 0.931 ± 0.11 | 0.928 ± 0.096 | 0.831 ± 0.078 | 0.833 ± 0.034 | 0.812 ± 0.043 | 0.832 ± 0.055 | 0.771 ± 0.087 | 0.798 ± 0.048 |
| H0YM11 and related entries (UniProt Q9Y448) | 0.9956 ± 0.0083 | 0.92 ± 0.072 | 1.03 ± 0.055 | 0.987 ± 0.056 | 0.979 ± 0.072 | 1.04 ± 0.069 | 1.05 ± 0.031 | 1.14 ± 0.05 |
| H3BSH7 and related entries (UniProt Q969X6) | 1.03 ± 0.14 | 1.09 ± 0.11 | 1.03 ± 0.095 | 1.12 ± 0.22 | 1.28 ± 0.24 | 1.33 ± 0.22 | 1.32 ± 0.18 | 1.44 ± 0.31 |
| J3KRX2 and related entries (UniProt Q8N1S5) | 1 ± 0.1 | 1 ± 0.075 | 1.06 ± 0.087 | 0.997 ± 0.061 | 1.07 ± 0.043 | 0.991 ± 0.096 | 1.07 ± 0.048 | 1.01 ± 0.056 |
| K7EJL1 and related entries (UniProt Q9BXS5) | 1.01 ± 0.056 | 1.05 ± 0.1 | 0.947 ± 0.034 | 0.963 ± 0.084 | 0.938 ± 0.062 | 0.943 ± 0.073 | 0.886 ± 0.032 | 0.882 ± 0.061 |
| H0Y362 and related entries (UniProt Q8NEW0) | 1.21 ± 0.043 | 1.14 ± 0.018 | 1.14 ± 0.026 | 1.13 ± 0.1 | 1.05 ± 0.062 | 1.05 ± 0.11 | 1.04 ± 0.055 | 0.959 ± 0.013 |
| J3KN32 and related entries (UniProt Q9UKL0) | 0.979 ± 0.05 | 0.961 ± 0.034 | 1.05 ± 0.033 | 1.02 ± 0.062 | 1.08 ± 0.1 | 1.1 ± 0.083 | 1.12 ± 0.1 | 1.1 ± 0.12 |
| H3BTB7 and related entries (UniProt Q5JPH6) | 1.04 ± 0.069 | 1 ± 0.05 | 0.947 ± 0.045 | 0.958 ± 0.078 | 0.926 ± 0.075 | 0.923 ± 0.065 | 0.887 ± 0.053 | 0.878 ± 0.071 |
| I3L072 and related entries (UniProt Q9BSJ5) | 1.02 ± 0.058 | 0.927 ± 0.089 | 1.05 ± 0.067 | 0.961 ± 0.022 | 1.07 ± 0.065 | 1.04 ± 0.084 | 1.05 ± 0.027 | 0.999 ± 0.058 |
| H0Y4X3 and related entries (UniProt Q14498) | 1.02 ± 0.049 | 1.2 ± 0.029 | 1.28 ± 0.046 | 1.36 ± 0.076 | 1.44 ± 0.13 | 1.48 ± 0.11 | 1.56 ± 0.15 | 1.6 ± 0.14 |
| K7ESL1 and related entries (UniProt P83876) | 1.02 ± 0.017 | 1.07 ± 0.033 | 1.04 ± 0.024 | 1.01 ± 0.085 | 1.04 ± 0.074 | 1.07 ± 0.033 | 1.11 ± 0.088 | 1.09 ± 0.17 |
| H0YLX2 and related entries (UniProt Q2KHR2) | 1.03 ± 0.064 | 1.03 ± 0.045 | 1.03 ± 0.087 | 1.03 ± 0.063 | 1.04 ± 0.077 | 1.06 ± 0.05 | 1.1 ± 0.052 | 1.05 ± 0.054 |

Single records (already shown):
I3L397 and related entries (UniProt P63241) as listed: NP40-soluble protein abundance (concentration: 0.1mM): 0.931 ± 0.11; NP40-soluble protein abundance (concentration: 0.5mM): 0.928 ± 0.096; NP40-soluble protein abundance (concentration: 1mM): 0.831 ± 0.078; NP40-soluble protein abundance (concentration: 2mM): 0.833 ± 0.034; NP40-soluble protein abundance (concentration: 4mM): 0.812 ± 0.043; NP40-soluble protein abundance (concentration: 6mM): 0.832 ± 0.055; NP40-soluble protein abundance (concentration: 8mM): 0.771 ± 0.087; NP40-soluble protein abundance (concentration: 10mM): 0.798 ± 0.048
J3QL06 and related entries (UniProt Q9Y4L1) as listed: NP40-soluble protein abundance (concentration: 0.1mM): 0.913 ± 0.088; NP40-soluble protein abundance (concentration: 0.5mM): 0.942 ± 0.093; NP40-soluble protein abundance (concentration: 1mM): 0.926 ± 0.095; NP40-soluble protein abundance (concentration: 2mM): 0.877 ± 0.087; NP40-soluble protein abundance (concentration: 4mM): 0.859 ± 0.084; NP40-soluble protein abundance (concentration: 6mM): 0.89 ± 0.087; NP40-soluble protein abundance (concentration: 8mM): 0.88 ± 0.091; NP40-soluble protein abundance (concentration: 10mM): 0.88 ± 0.088
